Values quoted from earlier work, collected in US20100197642A1, “SLOW RELEASE MISOPROSTOL FOR OBSTETRIC AND/OR GYNAECOLOGICAL APPLICATIONS” (priority 2007, published 2010).
At least one compound was matched to its structure with a doubt left.

Tested on: uterine contractions
Details: conventional oral misoprostol; cited from earlier work

CCCCC(C)(O)C/C=C/[C@H]1[C@H](O)CC(=O)[C@@H]1CCCCCCC(=O)OC (mixture of isomers) [misoprostol, (±) methyl 7-[3-(α-hydroxy-2-β-(4(RS)-4-hydroxy-4-methyl-trans-1-octen-1-yl)-oxycyclopent-1α-yl]heptanoate]
uterine contractions after treatment: does not generate uterine contractions
